# In patent publication US20140336184A1, “METHOD TO ENHANCE COGNITION” (priority 2011, published 2014):
# At least one compound was matched to its structure with a doubt left.
# Key:
# Format in all cases: cell-based, mouse
# [1] = system: CA1 neurons in WT hippocampal slices; conditions: bicuculline
# [2] = system: hippocampal slices from WT mice; assay: Field recording (population spikes, fEPSPs) in CA1 of hippocampal slices; conditions: 5 pulses at 100 Hz
# Experimental: (§1) Field recording: horizontal hippocampal slices ([…]) were cut from brains of WT or age-matched Pkr^−/− littermates in 4° C. artificial cerebrospinal fluid (ACSF) and kept in ACSF at room temperature for at least one hr before recording, as described (Zhu et al., 2005). Slices were maintained in an interface-type chamber perfused with oxygenated ACSF (95% O2 and 5% CO2) containing in mM: 124 NaCl, 2.0 KCl, 1.3 MgSO4, 2.5 CaCl2, 1.2 KH2PO4, 25 NaHCO3, and 10 glucose (2-3 ml/min). Bipolar stimulating electrodes were placed in the CA1 stratum radiatum to stimulate Schaffer collateral and commissural fibers. Field potentials were recorded using ACSF-filled micropipettes at 28-29° C. The recording electrodes were placed in the stratum radiatum for field excitatory postsynaptic potentials (fEPSPs), and stratum pyramidale for population spikes. The stimulus strength of the 0.1 ms pulses was adjusted to evoke 30-35% of maximum response for fEPSPs, and 50% of maximal response for population spikes. A stable baseline of responses was established for at least 30 min at 0.033 Hz. Tetanic LTP was induced by high-frequency stimulation in brief trains (100 Hz, 1 s), applied either as a single train or four trains separated by 5 min intervals. A short train consisted of 5 stimuli (100 Hz within-burst). […]
# [3] = system: hippocampal slices from Pkr−/− mice; assay: Field recording (population spikes) in CA1 of hippocampal slices; conditions: bicuculline 2 μM
# Experimental: as §1
smiles,measurement,setting,value
CN1CCc2cc3c(cc2[C@H]1[C@@H]1OC(=O)c2c1ccc1c2OCO1)OCO3 [bicuculline],sIPSCs,[1],Reversible elimination
same,Decrease of CA1 population spike amplitude during short high frequency train (cumulative inhibition),[2],largely suppressed this sharp decline
same,After-discharge after a single stimulus,[3],prominent after-discharge
